According to paper PMC11784297:
No constants are given. Whether binding was seen depends on the method and setting. Binding seen in cells or lysates may run through a third protein. Some results given as binding are weak or reduced against the parent protein; the word gives no strength. For part of these data: Tags and fused reporters may be left off the sequences shown.

The chains behind the UniProt entries cited, without tags or fusion partners.
UniProt P42224: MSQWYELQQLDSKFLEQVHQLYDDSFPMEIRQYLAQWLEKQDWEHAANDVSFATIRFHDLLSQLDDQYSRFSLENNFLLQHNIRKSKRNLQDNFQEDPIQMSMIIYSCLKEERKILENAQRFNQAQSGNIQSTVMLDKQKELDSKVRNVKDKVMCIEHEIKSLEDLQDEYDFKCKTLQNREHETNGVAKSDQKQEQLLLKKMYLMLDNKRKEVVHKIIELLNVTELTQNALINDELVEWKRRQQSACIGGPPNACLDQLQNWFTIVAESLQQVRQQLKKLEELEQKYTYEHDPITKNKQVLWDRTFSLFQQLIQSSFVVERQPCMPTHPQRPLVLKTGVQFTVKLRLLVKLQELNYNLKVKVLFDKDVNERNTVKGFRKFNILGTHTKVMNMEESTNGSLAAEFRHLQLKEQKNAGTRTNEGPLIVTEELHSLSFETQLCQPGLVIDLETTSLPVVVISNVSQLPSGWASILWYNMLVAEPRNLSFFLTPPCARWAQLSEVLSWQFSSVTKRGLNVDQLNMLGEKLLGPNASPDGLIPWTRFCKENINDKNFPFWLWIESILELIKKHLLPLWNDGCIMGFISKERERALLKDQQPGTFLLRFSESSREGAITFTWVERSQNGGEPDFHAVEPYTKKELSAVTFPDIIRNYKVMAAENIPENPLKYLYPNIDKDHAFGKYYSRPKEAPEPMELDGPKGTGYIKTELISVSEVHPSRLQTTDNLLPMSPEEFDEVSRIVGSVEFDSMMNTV
UniProt P52630: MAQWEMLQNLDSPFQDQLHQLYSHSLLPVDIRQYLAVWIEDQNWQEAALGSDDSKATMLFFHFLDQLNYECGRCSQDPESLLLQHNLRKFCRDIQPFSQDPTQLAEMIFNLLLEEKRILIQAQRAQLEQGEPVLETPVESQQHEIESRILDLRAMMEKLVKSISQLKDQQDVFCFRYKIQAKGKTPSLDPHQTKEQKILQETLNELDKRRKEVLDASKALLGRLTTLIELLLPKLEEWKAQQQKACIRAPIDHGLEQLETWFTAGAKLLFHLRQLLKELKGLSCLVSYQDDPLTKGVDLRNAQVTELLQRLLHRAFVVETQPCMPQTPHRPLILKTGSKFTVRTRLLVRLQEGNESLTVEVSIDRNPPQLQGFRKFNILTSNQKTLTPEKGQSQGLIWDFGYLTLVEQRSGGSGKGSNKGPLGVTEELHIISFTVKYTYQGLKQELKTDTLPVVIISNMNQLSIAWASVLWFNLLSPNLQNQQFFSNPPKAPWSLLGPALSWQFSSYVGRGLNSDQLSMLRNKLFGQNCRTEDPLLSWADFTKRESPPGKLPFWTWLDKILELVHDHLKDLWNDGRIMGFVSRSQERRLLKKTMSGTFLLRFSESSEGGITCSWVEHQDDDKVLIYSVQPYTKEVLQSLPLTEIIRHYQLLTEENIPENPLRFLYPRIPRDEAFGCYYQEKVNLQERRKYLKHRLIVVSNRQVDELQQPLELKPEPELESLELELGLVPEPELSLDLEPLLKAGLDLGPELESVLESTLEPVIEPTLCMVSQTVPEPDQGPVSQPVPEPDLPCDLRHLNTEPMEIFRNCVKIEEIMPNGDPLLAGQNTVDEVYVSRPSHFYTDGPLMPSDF

Assays:
Experiment in all cases: co-IP
HA-tagged IRF9 = target: T1, HA-tagged IRF9 (UniProt Q00978)
T1 sequence: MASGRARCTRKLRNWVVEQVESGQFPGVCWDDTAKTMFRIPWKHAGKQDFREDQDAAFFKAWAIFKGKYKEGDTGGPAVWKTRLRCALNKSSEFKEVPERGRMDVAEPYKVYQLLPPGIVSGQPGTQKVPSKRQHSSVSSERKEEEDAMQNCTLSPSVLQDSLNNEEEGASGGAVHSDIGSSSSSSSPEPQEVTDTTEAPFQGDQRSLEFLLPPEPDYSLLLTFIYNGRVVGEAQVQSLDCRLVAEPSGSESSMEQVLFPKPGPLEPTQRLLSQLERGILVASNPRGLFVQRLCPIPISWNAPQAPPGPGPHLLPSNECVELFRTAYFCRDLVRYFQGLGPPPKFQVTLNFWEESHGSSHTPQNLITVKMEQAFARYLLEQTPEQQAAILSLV

HA-tagged STAT1 = HA-tagged STAT1 (UniProt P42224)
HA-tagged STAT2 = HA-tagged STAT2 (UniProt P52630)

Measured: binding

S2 domain (aa 688-1273) of the SARS-CoV-2 S protein (from UniProt P0DTC2 688-1273) (domain or fragment)
binds: HA-tagged IRF9 | HA-tagged STAT1 | HA-tagged STAT2
